{"source": "patent US20240285634A1", "about": "“COMPOUND AND METHOD FOR TREATING CHEMOTHERAPY-ASSOCIATED GASTROINTESTINAL SIDE EFFECTS” (ONQUALITY PHARMACEUTICALS CHINA LTD., priority 2021, published 2024)", "test_system": "Chemotherapeutic agent-caused diarrhea models of Balb/c mice", "test": "Relieving effect on diarrhea caused by a chemotherapeutic agent (Examples 1-201)", "format": "in vivo", "source_text": "Construction of mouse animal models: Chemotherapeutic agent-caused diarrhea models of Balb/c mice were constructed according to the administration mode and frequency of the chemotherapeutic agent as shown in Table 3. After administration for several days, mice developed different extents of diarrhea symptoms (as shown in FIG. 1), which were similar to the conditions in human. Thus, chemotherapeutic agent-caused diarrhea models of mice are very good models to mimic diarrhea in human caused by the chemotherapeutic agent.\nBalb/c mice were fed for 1 week, and then divided into groups. The experiment was divided into a control group, a chemotherapeutic agent group, and a group of the compound as shown in Formula I, each of which comprised 10 mice, to perform the administration experiment, for which the administration dosage, mode, time and frequency were shown in Table 3. The control group: being injected or intragastrically administered with the same solvent as that used in the group of the compound as shown in Formula I (the injection mode and time were shown in Table 3), and then being injected or intragastrically administered with the same solvent as that used in the chemotherapeutic agent group (the administration mode was shown in Table 3); the chemotherapeutic agent group: being injected or intragastrically administered with the same solvent as that used in the group of the compound as shown in Formula I (the administration mode and time were shown in Table 3), and then being injected or intragastrically administered with the chemotherapeutic agent (the type, administration mode and dosage were shown in Table 3); the group of the compound as shown in Formula I: being injected or intragastrically administered with the compound as shown in Formula I (the administration mode and time were shown in Table 3), and then being administered with the chemotherapeutic agent (the administration mode and dosage were shown in Table 3).\nThe scoring of diarrhea can refer to the method of Akinobu Kurita (Cancer Chemother Pharmacol 2000; 46:211-20.), Grade 0: normal feces; Grade 1: mild diarrhea, the stools is slightly wet and soft; Grade 2: moderate diarrhea, loose stools and mild perianal contamination; Grade 3: severe diarrhea, watery stools and accompanied by severe perianal staining (see FIG. 1). It is regarded as effective remission when the diarrhea grading of mice in the group of the compound as shown in Formula I is reduced compared with the average diarrhea grading of mice in the chemotherapeutic agent group.\nThe diarrhea grading of mice was observed and recorded every day. At the end of the experiment, the number of mice in the group of the compound as shown in Formula I whose diarrhea grading was lower than that of mice in the chemotherapeutic agent group was recorded. Table 3 lists various animal experiment combinations of chemotherapeutic agents and the compound as shown in Formula I, as well as the corresponding experimental results. (Relative remission rate %=the number of mice in the group of the compound as shown in Formula I whose diarrhea has been effectively relieved/the total number of mice in the group of the compound as shown in Formula I*100%. The establishment rate of diarrhea model in the chemotherapeutic agent group was 50%-70%, that is, about 5-7 of 10 mice developed diarrhea during the experiment, and there were cases of individual mice death or not developing diarrhea.)", "note": "This continues a long series; more values of the same kind are listed elsewhere."}
{"smiles": "CN1CCN(c2ccc(Nc3ncc4cc5n(c4n3)C3(CCCCC3)CNC5=O)nc2)CC1", "note": "[Compound I, Trilaciclib]", "values": [{"measurement": "Relative remission rate", "setting": "Ex 19, 5-Fu 125 mg/kg intraperitoneal single, compound 100 mg/kg intravenous single 13 h before, cycle 10 days", "value": 60, "unit": "%"}, {"measurement": "Relative remission rate", "setting": "Ex 20, 5-Fu 125 mg/kg intraperitoneal single, compound 100 mg/kg intravenous single 14 h before, cycle 10 days", "value": 60, "unit": "%"}, {"measurement": "Relative remission rate", "setting": "Ex 21, 5-Fu 125 mg/kg intraperitoneal single, compound 100 mg/kg intravenous single 16 h before, cycle 10 days", "value": 60, "unit": "%"}, {"measurement": "Relative remission rate", "setting": "Ex 22, 5-Fu 125 mg/kg intraperitoneal single, compound 100 mg/kg intravenous single 18 h before, cycle 10 days", "value": 50, "unit": "%"}, {"measurement": "Relative remission rate", "setting": "Ex 23, 5-Fu 125 mg/kg intraperitoneal single, compound 100 mg/kg intravenous single 20 h before, cycle 10 days", "value": 50, "unit": "%"}, {"measurement": "Relative remission rate", "setting": "Ex 24, 5-Fu 125 mg/kg intraperitoneal single, compound 100 mg/kg intravenous single 22 h before, cycle 10 days", "value": 40, "unit": "%"}, {"measurement": "Relative remission rate", "setting": "Ex 25, 5-Fu 125 mg/kg intraperitoneal single, compound 100 mg/kg intravenous single 24 h before, cycle 10 days", "value": 40, "unit": "%"}, {"measurement": "Relative remission rate", "setting": "Ex 26, 5-Fu 125 mg/kg intraperitoneal single, compound 100 mg/kg intravenous single 48 h before, cycle 10 days", "value": 0, "unit": "%"}, {"measurement": "Relative remission rate", "setting": "Ex 34, 5-Fu 175 mg/kg intravenous single, compound 100 mg/kg intraperitoneal single 0.5 h before, cycle 10 days", "value": 40, "unit": "%"}, {"measurement": "Relative remission rate", "setting": "Ex 35, 5-Fu 175 mg/kg intravenous single, compound 100 mg/kg intraperitoneal single 1 h before, cycle 10 days", "value": 40, "unit": "%"}, {"measurement": "Relative remission rate", "setting": "Ex 36, 5-Fu 175 mg/kg intravenous single, compound 100 mg/kg intraperitoneal single 2 h before, cycle 10 days", "value": 30, "unit": "%"}, {"measurement": "Relative remission rate", "setting": "Ex 37, 5-Fu 175 mg/kg intravenous single, compound 100 mg/kg intraperitoneal single 4 h before, cycle 10 days", "value": 30, "unit": "%"}, {"measurement": "Relative remission rate", "setting": "Ex 38, 5-Fu 175 mg/kg intravenous single, compound 100 mg/kg intraperitoneal single 6 h before, cycle 10 days", "value": 50, "unit": "%"}, {"measurement": "Relative remission rate", "setting": "Ex 39, 5-Fu 175 mg/kg intravenous single, compound 100 mg/kg intraperitoneal single 8 h before, cycle 10 days", "value": 60, "unit": "%"}, {"measurement": "Relative remission rate", "setting": "Ex 40, 5-Fu 175 mg/kg intravenous single, compound 100 mg/kg intraperitoneal single 10 h before, cycle 10 days", "value": 50, "unit": "%"}, {"measurement": "Relative remission rate", "setting": "Ex 41, 5-Fu 175 mg/kg intravenous single, compound 100 mg/kg intraperitoneal single 12 h before, cycle 10 days", "value": 40, "unit": "%"}, {"measurement": "Relative remission rate", "setting": "Ex 42, 5-Fu 175 mg/kg intravenous single, compound 100 mg/kg intraperitoneal single 14 h before, cycle 10 days", "value": 30, "unit": "%"}, {"measurement": "Relative remission rate", "setting": "Ex 43, 5-Fu 175 mg/kg intravenous single, compound 100 mg/kg intraperitoneal single 16 h before, cycle 10 days", "value": 40, "unit": "%"}, {"measurement": "Relative remission rate", "setting": "Ex 44, 5-Fu 175 mg/kg intravenous single, compound 100 mg/kg intraperitoneal single 18 h before, cycle 10 days", "value": 50, "unit": "%"}, {"measurement": "Relative remission rate", "setting": "Ex 45, 5-Fu 175 mg/kg intravenous single, compound 100 mg/kg intraperitoneal single 20 h before, cycle 10 days", "value": 50, "unit": "%"}, {"measurement": "Relative remission rate", "setting": "Ex 46, 5-Fu 175 mg/kg intravenous single, compound 100 mg/kg intraperitoneal single 24 h before, cycle 10 days", "value": 40, "unit": "%"}, {"measurement": "Relative remission rate", "setting": "Ex 47, 5-Fu 175 mg/kg intravenous single, compound 100 mg/kg intraperitoneal single 48 h before, cycle 10 days", "value": 0, "unit": "%"}, {"measurement": "Relative remission rate", "setting": "Ex 52, 5-Fu 175 mg/kg intravenous single, compound 100 mg/kg oral single 0.5 h before, cycle 10 days", "value": 40, "unit": "%"}, {"measurement": "Relative remission rate", "setting": "Ex 53, 5-Fu 175 mg/kg intravenous single, compound 100 mg/kg oral single 4 h before, cycle 10 days", "value": 80, "unit": "%"}, {"measurement": "Relative remission rate", "setting": "Ex 54, 5-Fu 175 mg/kg intravenous single, compound 100 mg/kg oral single 12 h before, cycle 10 days", "value": 50, "unit": "%"}, {"measurement": "Relative remission rate", "setting": "Ex 55, 5-Fu 175 mg/kg intravenous single, compound 100 mg/kg oral single 24 h before, cycle 10 days", "value": 30, "unit": "%"}, {"measurement": "Relative remission rate", "setting": "Ex 56, 5-Fu 250 mg/kg oral single, compound 150 mg/kg intramuscular single 0.5 h before, cycle 8 days", "value": 60, "unit": "%"}, {"measurement": "Relative remission rate", "setting": "Ex 57, 5-Fu 125 mg/kg intramuscular single, compound 100 mg/kg intraperitoneal single 8 h before, cycle 10 days", "value": 40, "unit": "%"}, {"measurement": "Relative remission rate", "setting": "Ex 58, Oxaliplatin 20 mg/kg intraperitoneal single, compound 100 mg/kg intraperitoneal single 0.5 h before, cycle 8 days", "value": 40, "unit": "%"}, {"measurement": "Relative remission rate", "setting": "Ex 59, Oxaliplatin 20 mg/kg intraperitoneal single, compound 100 mg/kg intraperitoneal single 1 h before, cycle 8 days", "value": 30, "unit": "%"}, {"measurement": "Relative remission rate", "setting": "Ex 60, Oxaliplatin 20 mg/kg intraperitoneal single, compound 100 mg/kg intraperitoneal single 2 h before, cycle 8 days", "value": 40, "unit": "%"}, {"measurement": "Relative remission rate", "setting": "Ex 61, Oxaliplatin 20 mg/kg intraperitoneal single, compound 100 mg/kg intraperitoneal single 3 h before, cycle 8 days", "value": 50, "unit": "%"}, {"measurement": "Relative remission rate", "setting": "Ex 62, Oxaliplatin 20 mg/kg intraperitoneal single, compound 100 mg/kg intraperitoneal single 4 h before, cycle 8 days", "value": 50, "unit": "%"}, {"measurement": "Relative remission rate", "setting": "Ex 63, Oxaliplatin 20 mg/kg intraperitoneal single, compound 100 mg/kg intraperitoneal single 5 h before, cycle 8 days", "value": 30, "unit": "%"}, {"measurement": "Relative remission rate", "setting": "Ex 64, Oxaliplatin 20 mg/kg intraperitoneal single, compound 100 mg/kg intraperitoneal single 6 h before, cycle 8 days", "value": 40, "unit": "%"}, {"measurement": "Relative remission rate", "setting": "Ex 65, Oxaliplatin 20 mg/kg intraperitoneal single, compound 100 mg/kg intraperitoneal single 7 h before, cycle 8 days", "value": 60, "unit": "%"}, {"measurement": "Relative remission rate", "setting": "Ex 66, Oxaliplatin 20 mg/kg intraperitoneal single, compound 100 mg/kg intraperitoneal single 8 h before, cycle 8 days", "value": 60, "unit": "%"}, {"measurement": "Relative remission rate", "setting": "Ex 67, Oxaliplatin 20 mg/kg intraperitoneal single, compound 100 mg/kg intraperitoneal single 9 h before, cycle 8 days", "value": 50, "unit": "%"}, {"measurement": "Relative remission rate", "setting": "Ex 68, Oxaliplatin 20 mg/kg intraperitoneal single, compound 100 mg/kg intraperitoneal single 10 h before, cycle 8 days", "value": 70, "unit": "%"}, {"measurement": "Relative remission rate", "setting": "Ex 69, Oxaliplatin 20 mg/kg intraperitoneal single, compound 100 mg/kg intraperitoneal single 11 h before, cycle 8 days", "value": 70, "unit": "%"}, {"measurement": "Relative remission rate", "setting": "Ex 70, Oxaliplatin 20 mg/kg intraperitoneal single, compound 100 mg/kg intraperitoneal single 12 h before, cycle 8 days", "value": 50, "unit": "%"}, {"measurement": "Relative remission rate", "setting": "Ex 71, Oxaliplatin 20 mg/kg intraperitoneal single, compound 100 mg/kg intraperitoneal single 14 h before, cycle 8 days", "value": 60, "unit": "%"}, {"measurement": "Relative remission rate", "setting": "Ex 72, Oxaliplatin 20 mg/kg intraperitoneal single, compound 100 mg/kg intraperitoneal single 16 h before, cycle 8 days", "value": 50, "unit": "%"}, {"measurement": "Relative remission rate", "setting": "Ex 73, Oxaliplatin 20 mg/kg intraperitoneal single, compound 100 mg/kg intraperitoneal single 18 h before, cycle 8 days", "value": 50, "unit": "%"}, {"measurement": "Relative remission rate", "setting": "Ex 74, Oxaliplatin 20 mg/kg intraperitoneal single, compound 100 mg/kg intraperitoneal single 20 h before, cycle 8 days", "value": 70, "unit": "%"}, {"measurement": "Relative remission rate", "setting": "Ex 75, Oxaliplatin 20 mg/kg intraperitoneal single, compound 100 mg/kg intraperitoneal single 22 h before, cycle 8 days", "value": 40, "unit": "%"}, {"measurement": "Relative remission rate", "setting": "Ex 76, Oxaliplatin 20 mg/kg intraperitoneal single, compound 100 mg/kg intraperitoneal single 24 h before, cycle 8 days", "value": 40, "unit": "%"}, {"measurement": "Relative remission rate", "setting": "Ex 77, Oxaliplatin 20 mg/kg intraperitoneal single, compound 100 mg/kg intraperitoneal single 48 h before, cycle 8 days", "value": 0, "unit": "%"}, {"measurement": "Relative remission rate", "setting": "Ex 81, Oxaliplatin 17.5 mg/kg intravenous single, compound 150 mg/kg intravenous single 0.5 h before, cycle 8 days", "value": 20, "unit": "%"}, {"measurement": "Relative remission rate", "setting": "Ex 82, Oxaliplatin 17.5 mg/kg intravenous single, compound 150 mg/kg intravenous single 4 h before, cycle 8 days", "value": 30, "unit": "%"}, {"measurement": "Relative remission rate", "setting": "Ex 83, Oxaliplatin 17.5 mg/kg intravenous single, compound 150 mg/kg intravenous single 8 h before, cycle 8 days", "value": 30, "unit": "%"}, {"measurement": "Relative remission rate", "setting": "Ex 84, Oxaliplatin 17.5 mg/kg intravenous single, compound 150 mg/kg intravenous single 12 h before, cycle 8 days", "value": 40, "unit": "%"}, {"measurement": "Relative remission rate", "setting": "Ex 85, Oxaliplatin 17.5 mg/kg intravenous single, compound 150 mg/kg intravenous single 16 h before, cycle 8 days", "value": 40, "unit": "%"}]}
